US6054450A, “Hair-care cosmetic compositions having dandruff formation-suppressing effect” (Pacific Corporation, priority 1997, dated 2000)

Test: Adsorption into the head skin, Adhesive Scatch Tape Stripping Method

[O-]n1ccccc1=S.[O-]n1ccccc1=S.[Zn+2] [zinc pyrithione, zinc salt of 1-hydroxy-2(1H) pyridinethione]
zinc pyrithione detected in tape strippings (dissolved zinc pyrithione): detected at all of the 1st through 5th strippings
zinc pyrithione detected in tape strippings (insoluble zinc pyrithione): not detected from 2nd stripping
